Experimental data reported in publication doi:10.1101/2025.10.16.682884.
No constants are given. Whether binding was seen depends on the method and setting. Binding seen in cells or lysates may run through a third protein. A yes stands for co-enrichment or nearness to the bait. Other partners may have been found. Tags and fused reporters may be left off the sequences shown. Each block holds one binder with its values, some of them ahead of it.

Molecular target: T1, endogenously tagged wrmScarlet::ALLO-1 fusion protein (C. elegans (endogenous in young adult animals)) (UniProt Q9U389)
T1 sequence: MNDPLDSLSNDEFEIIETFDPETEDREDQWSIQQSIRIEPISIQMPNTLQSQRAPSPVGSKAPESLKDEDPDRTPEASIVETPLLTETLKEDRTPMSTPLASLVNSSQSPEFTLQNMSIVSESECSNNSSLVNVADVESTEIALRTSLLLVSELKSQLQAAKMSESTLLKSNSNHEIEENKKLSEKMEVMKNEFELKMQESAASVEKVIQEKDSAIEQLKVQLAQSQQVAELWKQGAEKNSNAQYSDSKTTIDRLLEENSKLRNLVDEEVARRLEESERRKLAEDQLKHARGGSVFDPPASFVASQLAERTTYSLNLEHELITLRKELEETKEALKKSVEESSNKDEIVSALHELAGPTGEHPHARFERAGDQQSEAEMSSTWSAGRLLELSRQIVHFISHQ
Experiment: affinity purification with mass spectrometry

binding: binds
B1: DIM-1 (disorganized muscle protein 1) (protein, UniProt Q18066 1-640)
chain: MASLAPFFKISDSILADESFDDLEINNHFKCTSKDLNEYPRTSTPLPGEITSIYSLPRSYNNQNLCTRSKPTTFISQNQQKGMTEKPKHSEYFLRLMKTRQEMQKKLTAKNGSNKSVQQYLRKLPPSTSKEVTIIPVKMKPDDNSVYISKELSDRTDTKLPKVSTKEVEKFGEQSDDEERHERSHIASDFNQKTPQSTHATSNHRKRIFIGRTGAKQQHVSKKATESELPYNIDVSTSNTTNATEALKLLKRPLLLPSKDPRSSKMPRLDLNQHQFRCKQYIVHSQFTCTQIEKTFKCRVGTSTESEDLDDYYFDAMPDGKAPHFPQQPVARQNDDGSLELECFVDANPTPQVKWYYDNKEVENSGRFSANLANKGSDSYSAILTIKELADADAGAYRCAIVNPHGKGNANFNLKLTGFSSPTFVEKPQISSRDDGQVMVMEFRAKSILEPTFVWQKLVGGGAEEIIANSDRIKAVKKLEAGNVYYSALEIKEPTKDKDAGQFICTVKNESGKLTATFTVKFEVPEGAPSFTRKPQILQQTSAGGEPAICFDIGYSARMNPQVTWISPKSKKMKESSRIKFKTNDEGNGNFTAQLELTNYKAKDSGTYTCNIKNDAGEANVELTLNIEGPLDDYADDSEN

binding: binds
B2: CAR-1 (cytokinesis/apoptosis regulator 1) (protein, UniProt Q9XW17 1-340)
chain: MSNQTPYIGSKISLISKLDIRYEGILYTVDTNDSTIALAKVRSFGTEKRPTANPVAARDDVYEYIIFKASDIKDLIVCDTPKMANIGGGLPYDPAIISVSSRSAPASDGAPAASAGSSRAGTPSRNSPLGQIIQNQRPGRGGYQQNFQANRGYNNYRGGFAGGYNNQRGHNNYGVPRVNHREKLKFESDFDFEKANEKFQEVLVDNLEKLNIEDKAEPEVEEKKDAAFYDKKTSFFDNISCESLEKAEGKTGRPDWKKERETNQETFGHNAVRSLNYRRGFGGRGRGGNRGYGGYNNGYQHQHQHRGGYNGGYRQNNGGYRRGGYAPRDNQGNTAAAAEQ
